Results published in patent US20250120981A1, “MRTX1133 PHARMACEUTICAL COMPOSITIONS” (MIRATI THERAPEUTICS, INC., priority 2023, published 2025).
Values joined by “and” are separate entries in the source; they are usually repeats but may differ in a detail not shown here. Equal values may be shown once. The source gives many values for each of these; only a part stands here.

Test: Pharmacokinetics in humans, MRTX1133 formulation, oral, single and multiple doses
Assay type: in vivo
Procedure: The pharmacokinetics [PK] of the MRTX1133 formulation after oral administration has been evaluated in 25 subjects across 3 escalating dose frequencies under fasting conditions (200 mg twice daily [BID], 400 mg BID, and 800 mg BID), as well as evaluation of 400 mg BID when administered with a low-fat meal (i.e., under fed conditions). The mean (+standard deviation) single-dose and multiple-dose pharmacokinetic profiles of the evaluated doses are presented in FIG. 9 and FIG. 10, respectively. Individual single- and multiple-dose PK profiles can be found in FIG. 11. For all figures, the X-axis represents nominal time of sample collection (hours [h]) and the Y-axis represents plasma concentration (ng/mL). Table 10 lists PK data following the oral administration of a single dose and multiple doses of MRTX1133 formulation by dose level and subject.

In the case of C#Cc1c(F)ccc2cc(O)cc(-c3ncc4c(N5C[C@H]6CC[C@@H](C5)N6)nc(OC[C@@]56CCCN5C[C@H](F)C6)nc4c3F)c12 [MRTX1133, 4-(4-((1R,5S)-3,8-diazabicyclo[3.2.1]octan-3-yl)-8-fluoro-2-(((2R,7aS)-2-fluorohexahydro-1Hpyrrolizin-7a-yl)methoxy)pyrido[4,3-d]pyrimidin-7-yl)-5-ethynyl-6-fluoronaphthalen-2-ol], the Plasma concentration (multiple oral doses of 200 mg BID, fasted, 0 h, individual subjects) is reported as 1.63 ng/mL and 5.45 ng/mL and 0.632 ng/mL and 2.26 ng/mL and 16.7 ng/mL, the Plasma concentration (multiple oral doses of 200 mg BID, fasted, 0.5 h, individual subjects) is reported as 57.5 ng/mL and 5.15 ng/mL and 49.4 ng/mL and 13.1 ng/mL and 15.3 ng/mL and the Plasma concentration (multiple oral doses of 200 mg BID, fasted, 1 h, individual subjects) is reported as 85.0 ng/mL and 12.6 ng/mL and 8.00 ng/mL and 34.7 ng/mL and 15.2 ng/mL. The Plasma concentration (multiple oral doses of 200 mg BID, fasted, 1.5 h, individual subjects) was 55.0 ng/mL and 15.0 ng/mL and 4.08 ng/mL and 56.2 ng/mL and 17.1 ng/mL, the Plasma concentration (multiple oral doses of 200 mg BID, fasted, 2 h, individual subjects) was 29.9 ng/mL and 7.52 ng/mL and 4.43 ng/mL and 35.7 ng/mL and 15.6 ng/mL and the Plasma concentration (multiple oral doses of 200 mg BID, fasted, 4 h, individual subjects) was 12.3 ng/mL and 5.95 ng/mL and 1.64 ng/mL and 5.01 ng/mL. For the same compound, the Plasma concentration (multiple oral doses of 200 mg BID, fasted, 6 h, individual subjects) was 5.03 ng/mL and 4.63 ng/mL and 1.14 ng/mL and 3.28 ng/mL, the Plasma concentration (multiple oral doses of 200 mg BID, fasted, 8 h, individual subjects) was 3.22 ng/mL and 4.13 ng/mL and 0.878 ng/mL and 2.44 ng/mL and the Plasma concentration (multiple oral doses of 200 mg BID, fasted, 12 h, individual subjects) was 2.72 ng/mL and 5.45 ng/mL and 0.928 ng/mL and 2.08 ng/mL. The Plasma concentration (multiple oral doses of 400 mg BID with a low-fat meal, 0 h, individual subjects) was 53.8 ng/mL and 2.95 ng/mL and 4.53 ng/mL and 5.39 ng/mL, the Plasma concentration (multiple oral doses of 400 mg BID with a low-fat meal, 1 h, individual subjects) was 390 ng/mL and 90.3 ng/mL and 48.2 ng/mL and 23.0 ng/mL and the Plasma concentration (multiple oral doses of 400 mg BID with a low-fat meal, 2 h, individual subjects) was 203 ng/mL and 27.3 ng/mL and 17.9 ng/mL and 18.5 ng/mL. For the same compound, the Plasma concentration (multiple oral doses of 400 mg BID with a low-fat meal, 3 h, individual subjects) was 170 ng/mL and 24.8 ng/mL and 9.11 ng/mL and 16.6 ng/mL, the Plasma concentration (multiple oral doses of 400 mg BID with a low-fat meal, 4 h, individual subjects) was 129 ng/mL and 250 ng/mL and 6.60 ng/mL and 14.7 ng/mL and the Plasma concentration (multiple oral doses of 400 mg BID with a low-fat meal, 5 h, individual subjects) was 106 ng/mL and 39.4 ng/mL and 5.09 ng/mL and 8.57 ng/mL. For the same compound, the Plasma concentration (multiple oral doses of 400 mg BID with a low-fat meal, 6 h, individual subjects) was 89.4 ng/mL and 18.8 ng/mL and 4.07 ng/mL and 7.64 ng/mL, the Plasma concentration (multiple oral doses of 400 mg BID with a low-fat meal, 8 h, individual subjects) was 73.2 ng/mL and 8.47 ng/mL and 3.12 ng/mL and 7.05 ng/mL and the Plasma concentration (multiple oral doses of 400 mg BID with a low-fat meal, 12 h, individual subjects) was 55.3 ng/mL and 5.28 ng/mL and 2.90 ng/mL and 5.71 ng/mL. For the same compound, the Plasma concentration (multiple oral doses of 400 mg BID, fasted, 0 h, individual subjects) was 57.3 ng/mL and 0.579 ng/mL and 33.1 ng/mL and 9.12 ng/mL and 4.7 ng/mL and 9.83 ng/mL and 21.3 ng/mL, the Plasma concentration (multiple oral doses of 800 mg BID, fasted, 0 h, individual subjects 1-8) was 2.55 ng/mL and 19.3 ng/mL and 2.01 ng/mL and 12 ng/mL and 10.6 ng/mL and 36.5 ng/mL and 78.1 ng/mL and 3.63 ng/mL and the Plasma concentration (multiple oral doses of 800 mg BID, fasted, 0.5 h, individual subjects 1-8) was 7.77 ng/mL and 241 ng/mL (2×) and 34.4 ng/mL and 131 ng/mL and 11.2 ng/mL and 38.8 ng/mL and 72.6 ng/mL. The Plasma concentration (multiple oral doses of 800 mg BID, fasted, 1 h, individual subjects 1-8) was 9.9 ng/mL and 149 ng/mL and 25.9 ng/mL and 136 ng/mL and 12.9 ng/mL and 47.4 ng/mL and 670 ng/mL and 44.1 ng/mL, the Plasma concentration (multiple oral doses of 800 mg BID, fasted, 1.5 h, individual subjects 1-8) was 10.7 ng/mL and 80.9 ng/mL and 24.5 ng/mL and 143 ng/mL and 23.5 ng/mL and 45.1 ng/mL and 483 ng/mL and 44.3 ng/mL and the Plasma concentration (multiple oral doses of 800 mg BID, fasted, 2 h, individual subjects 1-8) was 8.1 ng/mL and 84.2 ng/mL and 30.8 ng/mL and 165 ng/mL and 29.8 ng/mL and 83.3 ng/mL and 531 ng/mL and 41 ng/mL. The Plasma concentration (multiple oral doses of 800 mg BID, fasted, 4 h, individual subjects 1-8) was 19.9 ng/mL and 26.3 ng/mL and 13.4 ng/mL and 67.4 ng/mL and 22.5 ng/mL and 105 ng/mL and 812 ng/mL and 35.9 ng/mL, the Plasma concentration (multiple oral doses of 800 mg BID, fasted, 6 h, individual subjects 1-8) was 38.2 ng/mL and 18.9 ng/mL and 4.94 ng/mL and 51.2 ng/mL and 26.1 ng/mL and 89.7 ng/mL and 609 ng/mL and 14.1 ng/mL and the Plasma concentration (multiple oral doses of 800 mg BID, fasted, 8 h, individual subjects 1-8) was 22.7 ng/mL and 18.1 ng/mL and 3.5 ng/mL and 30.1 ng/mL and 21.6 ng/mL and 57 ng/mL and 288 ng/mL and 8.66 ng/mL. The Plasma concentration (multiple oral doses of 800 mg BID, fasted, 12 h, individual subjects 1-8) was 11.1 ng/mL and 16.8 ng/mL and 2.59 ng/mL and 12.1 ng/mL and 12.4 ng/mL and 42.7 ng/mL and 5.14 ng/mL, the Plasma concentration (single oral dose of 200 mg, fasted, 0.5 h, individual subjects) was 12.0 ng/mL and 7.61 ng/mL and 8.20 ng/mL and 27.8 ng/mL and the Plasma concentration (single oral dose of 200 mg, fasted, 4 h, individual subjects) was 7.45 ng/mL and 21.0 ng/mL and 4.79 ng/mL and 4.8 ng/mL and 114 ng/mL. The Plasma concentration (single oral dose of 200 mg, fasted, 6 h, individual subjects) was 3.04 ng/mL and 8.00 ng/mL and 1.60 ng/mL and 1.82 ng/mL and 44.8 ng/mL, the Plasma concentration (single oral dose of 200 mg, fasted, 8 h, individual subjects) was 2.37 ng/mL and 4.77 ng/mL and 0.954 ng/mL and 1.22 ng/mL and 23.6 ng/mL and the Plasma concentration (single oral dose of 200 mg, fasted, 12 h, individual subjects) was 1.73 ng/mL and 2.86 ng/mL and 0.678 ng/mL and 0.912 ng/mL and 16.0 ng/mL. For the same compound, the Plasma concentration (single oral dose of 200 mg, fasted, 24 h, individual subjects) was 0.521 ng/mL and 1.08^a ng/mL, the Plasma concentration (single oral dose of 400 mg with a low-fat meal, 8 h, individual subjects) was 36.2 ng/mL and 6.62 ng/mL and 0.538 ng/mL and 48.8 ng/mL and 9.72 ng/mL and the Plasma concentration (single oral dose of 400 mg with a low-fat meal, 12 h, individual subjects) was 17.5 ng/mL and 3.17 ng/mL and 30.4 ng/mL and 5.32 ng/mL. The Plasma concentration (single oral dose of 400 mg, fasted, 0.5 h, individual subjects) was 51.4 ng/mL and 66.3 ng/mL and 71 ng/mL and 15.2 ng/mL and 51.5 ng/mL and 43.7 ng/mL, the Plasma concentration (single oral dose of 400 mg, fasted, 1 h, individual subjects) was 39.5 ng/mL and 62 ng/mL and 39.8 ng/mL and 38.2 ng/mL and 15.2 ng/mL and 71.7 ng/mL and 99.1 ng/mL and the Plasma concentration (single oral dose of 400 mg, fasted, 1.5 h, individual subjects) was 57.4 ng/mL and 9.42 ng/mL and 22.3 ng/mL and 49.5 ng/mL and 7.59 ng/mL and 69.1 ng/mL and 127 ng/mL. The Plasma concentration (single oral dose of 400 mg, fasted, 2 h, individual subjects) was 62.1 ng/mL and 11 ng/mL and 17.6 ng/mL and 30.8 ng/mL and 5.83 ng/mL and 268 ng/mL and 188 ng/mL, the Plasma concentration (single oral dose of 400 mg, fasted, 4 h, individual subjects) was 54.3 ng/mL and 6.83 ng/mL and 9.91 ng/mL and 7.09 ng/mL and 37 ng/mL and 281 ng/mL and 54.8 ng/mL and the Plasma concentration (single oral dose of 400 mg, fasted, 6 h, individual subjects) was 39.9 ng/mL and 2.9 ng/mL and 4.98 ng/mL and 5.22 ng/mL and 6.99 ng/mL and 158 ng/mL and 23.8 ng/mL. For the same compound, the Plasma concentration (single oral dose of 400 mg, fasted, 8 h, individual subjects) was 23 ng/mL and 0.923 ng/mL and 3.27 ng/mL and 3.59 ng/mL and 2.91 ng/mL and 106 ng/mL and 21.2 ng/mL, the Plasma concentration (single oral dose of 400 mg, fasted, 12 h, individual subjects) was 15.1 ng/mL and 1.05 ng/mL and 2.16 ng/mL and 2.43 ng/mL and 1.79 ng/mL and 49.2 ng/mL and 11.4 ng/mL and the Plasma concentration (single oral dose of 800 mg, fasted, 0.5 h, individual subjects) was 77.9 ng/mL and 1530 ng/mL and 101 ng/mL and 55.3 ng/mL and 14.9 ng/mL and 13.1 ng/mL and 78.5 ng/mL and 11.2 ng/mL. For the same compound, the Plasma concentration (single oral dose of 800 mg, fasted, 1 h, individual subjects) was 129 ng/mL and 1760 ng/mL and 79.9 ng/mL and 64.3 ng/mL and 23.4 ng/mL and 11.4 ng/mL and 205 ng/mL and 15.4 ng/mL, the Plasma concentration (single oral dose of 800 mg, fasted, 1.5 h, individual subjects) was 108 ng/mL and 489 ng/mL and 74.2 ng/mL and 48.9 ng/mL and 13.8 ng/mL and 24 ng/mL and 437 ng/mL and 16.2 ng/mL and the Plasma concentration (single oral dose of 800 mg, fasted, 2 h, individual subjects) was 78.2 ng/mL and 328 ng/mL and 29.3 ng/mL and 27.7 ng/mL and 11.2 ng/mL and 80.5 ng/mL and 374 ng/mL and 8.36 ng/mL. For the same compound, the Plasma concentration (single oral dose of 800 mg, fasted, 4 h, individual subjects) was 14.7 ng/mL and 108 ng/mL and 6.77 ng/mL and 8.95 ng/mL and 24 ng/mL and 69.2 ng/mL and 302 ng/mL and 6.89 ng/mL, the Plasma concentration (single oral dose of 800 mg, fasted, 6 h, individual subjects) was 4.95 ng/mL and 37.3 ng/mL and 3.2 ng/mL and 8.44 ng/mL and 8.62 ng/mL and 62.5 ng/mL and 329 ng/mL and 8.79 ng/mL and the Plasma concentration (single oral dose of 800 mg, fasted, 8 h, individual subjects) was 2.73 ng/mL and 26 ng/mL and 1.12 ng/mL and 4.28 ng/mL and 10.1 ng/mL and 53.2 ng/mL and 266 ng/mL and 33.8 ng/mL. The Plasma concentration (single oral dose of 800 mg, fasted, 12 h, individual subjects) was 2.06 ng/mL and 14.4 ng/mL and 1.22 ng/mL and 2.51 ng/mL and 2.1 ng/mL and 22.3 ng/mL and 43.3 ng/mL and the Plasma concentration (single oral dose of 800 mg, fasted, 24 h, individual subjects) was 0.894 ng/mL and 50.2 ng/mL.
